Measurements: publication PMC11150407
No constants are given. Whether binding was seen depends on the method and setting. In cells and extracts the contact can be indirect. Binding can be weak; no strength is given.

Amino acid sequences for entries named in this document (tags omitted). A change or cut given only in a name is not applied to a line headed by its entry.
UniProt Q03112: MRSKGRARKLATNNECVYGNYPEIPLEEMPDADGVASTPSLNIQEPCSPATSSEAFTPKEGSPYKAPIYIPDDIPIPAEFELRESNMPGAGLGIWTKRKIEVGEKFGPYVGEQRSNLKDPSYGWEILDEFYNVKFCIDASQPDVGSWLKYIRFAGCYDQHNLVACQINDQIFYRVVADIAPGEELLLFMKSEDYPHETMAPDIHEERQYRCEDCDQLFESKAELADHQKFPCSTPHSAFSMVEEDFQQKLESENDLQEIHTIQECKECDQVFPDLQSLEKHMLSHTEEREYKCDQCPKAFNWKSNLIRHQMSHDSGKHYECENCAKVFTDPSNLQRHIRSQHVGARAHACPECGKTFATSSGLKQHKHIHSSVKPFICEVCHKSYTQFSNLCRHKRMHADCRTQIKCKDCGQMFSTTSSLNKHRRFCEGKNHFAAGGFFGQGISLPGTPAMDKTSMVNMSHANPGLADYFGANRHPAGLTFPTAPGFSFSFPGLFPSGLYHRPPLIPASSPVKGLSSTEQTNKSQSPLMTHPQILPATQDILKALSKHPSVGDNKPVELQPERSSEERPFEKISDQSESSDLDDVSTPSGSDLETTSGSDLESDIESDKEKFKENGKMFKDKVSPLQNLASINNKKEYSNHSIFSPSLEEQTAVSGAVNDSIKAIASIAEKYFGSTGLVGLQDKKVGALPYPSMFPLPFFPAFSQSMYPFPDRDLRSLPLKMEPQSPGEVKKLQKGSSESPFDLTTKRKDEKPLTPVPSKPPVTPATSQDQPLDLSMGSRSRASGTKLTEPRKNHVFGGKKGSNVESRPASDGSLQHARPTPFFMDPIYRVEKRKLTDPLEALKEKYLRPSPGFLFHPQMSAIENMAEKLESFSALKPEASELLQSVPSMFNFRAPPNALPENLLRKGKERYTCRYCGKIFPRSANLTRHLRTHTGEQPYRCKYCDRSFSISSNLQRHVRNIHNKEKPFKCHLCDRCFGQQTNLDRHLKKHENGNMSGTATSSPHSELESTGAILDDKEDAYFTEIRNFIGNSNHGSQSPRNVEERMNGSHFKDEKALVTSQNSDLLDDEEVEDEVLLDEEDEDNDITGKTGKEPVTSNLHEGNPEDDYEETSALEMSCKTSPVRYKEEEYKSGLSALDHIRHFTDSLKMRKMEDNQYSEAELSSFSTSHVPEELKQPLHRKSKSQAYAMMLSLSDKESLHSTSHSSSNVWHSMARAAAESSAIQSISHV

Target: ecotropic viral integration site-1 (EVI1/MECOM) (human (endogenous in HNT34, UCSD/AML1 and PDLX_PR#003 cells)) (UniProt Q03112)
Assay: co-IP; endogenous proteins, HNT34 lysate (Cell Lysis Buffer II); overnight with anti-EVI1 (C50E12), anti-PA2G4 (Proteintech 15348-1-AP) or normal rabbit IgG, 1 ug/mg; Dynabeads protein G 2 hr at 4 C

B1: proliferation-associated 2G4 (PA2G4) protein (protein, UniProt Q9UQ80 1-394)
chain: MSGEDEQQEQTIAEDLVVTKYKMGGDIANRVLRSLVEASSSGVSVLSLCEKGDAMIMEETGKIFKKEKEMKKGIAFPTSISVNNCVCHFSPLKSDQDYILKEGDLVKIDLGVHVDGFIANVAHTFVVDVAQGTQVTGRKADVIKAAHLCAEAALRLVKPGNQNTQVTEAWNKVAHSFNCTPIEGMLSHQLKQHVIDGEKTIIQNPTDQQKKDHEKAEFEVHEVYAVDVLVSSGEGKAKDAGQRTTIYKRDPSKQYGLKMKTSRAFFSEVERRFDAMPFTLRAFEDEKKARMGVVECAKHELLQPFNVLYEKEGEFVAQFKFTVLLMPNGPMRITSGPFEPDLYKSEMEVQDAELKALLQSSASRKTQKKKKKKASKTAENATSGETLEENEAGD
Q: Which binding does the source give for B1 here?
A: binds
